{"sequences": {"note": "Chains of the proteins cited; added tags and fusions are not shown.", "UniProt Q15437": "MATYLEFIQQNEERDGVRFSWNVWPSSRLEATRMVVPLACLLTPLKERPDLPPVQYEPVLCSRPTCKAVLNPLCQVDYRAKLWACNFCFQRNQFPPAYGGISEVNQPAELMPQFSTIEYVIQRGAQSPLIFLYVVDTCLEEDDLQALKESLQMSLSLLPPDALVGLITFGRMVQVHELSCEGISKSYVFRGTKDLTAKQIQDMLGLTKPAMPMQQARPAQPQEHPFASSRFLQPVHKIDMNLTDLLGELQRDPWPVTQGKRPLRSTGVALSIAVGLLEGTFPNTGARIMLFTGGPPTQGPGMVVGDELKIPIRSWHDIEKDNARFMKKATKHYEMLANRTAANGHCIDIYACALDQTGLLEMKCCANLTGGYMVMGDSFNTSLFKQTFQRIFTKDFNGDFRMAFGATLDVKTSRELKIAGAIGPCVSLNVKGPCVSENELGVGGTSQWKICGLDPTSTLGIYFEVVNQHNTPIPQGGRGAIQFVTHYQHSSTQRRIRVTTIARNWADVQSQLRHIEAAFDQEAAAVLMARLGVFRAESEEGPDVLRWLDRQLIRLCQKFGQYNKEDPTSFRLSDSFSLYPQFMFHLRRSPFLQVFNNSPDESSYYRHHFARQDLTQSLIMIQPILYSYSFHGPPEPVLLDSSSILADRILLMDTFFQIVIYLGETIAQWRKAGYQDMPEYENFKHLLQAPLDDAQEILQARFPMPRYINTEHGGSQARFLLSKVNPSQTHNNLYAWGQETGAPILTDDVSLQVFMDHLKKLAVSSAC", "UniProt P21926": "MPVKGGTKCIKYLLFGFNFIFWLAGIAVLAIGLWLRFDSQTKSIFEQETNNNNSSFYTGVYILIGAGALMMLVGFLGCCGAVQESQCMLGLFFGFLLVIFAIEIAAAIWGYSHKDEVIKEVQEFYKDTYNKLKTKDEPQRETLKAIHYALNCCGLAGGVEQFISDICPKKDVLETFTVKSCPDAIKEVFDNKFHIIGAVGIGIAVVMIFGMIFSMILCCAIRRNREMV"}, "source": "paper PMC7052170", "molecules": {"B1": {"name": "epithelial cell adhesion molecule (EPCAM) (protein, UniProt P16422 24-314)", "chain": "QEECVCENYKLAVNCFVNNNRQCQCTSVGAQNTVICSKLAAKCLVMKAEMNGSKLGRRAKPEGALQNNDGLYDPDCDESGLFKAKQCNGTSMCWCVNTAGVRRTDKDTEITCSERVRTYWIIIELKHKAREKPYDSKSLRTALQKEITTRYQLDPKFITSILYENNVITIDLVQNSSQKTQNDVDIADVAYYFEKDVKGESLFHSKKMDLTVNGEQLDLDPGQTLIYYVDEKAPEFSMQGLKAGVIAVIVVVVIAVVAGIVVLVISRKKRMAKYEKAEIKEMGEMHRELNA"}}, "target": "Sec23 homolog B (SEC23B) (human (endogenous in SW480)) (UniProt Q15437)", "assay": "co-IP; SW480 cells homogenized, immunoprecipitated with homemade monoclonal antibody against SEC23B, immunoblotted with antibodies against EPCAM or CD9", "note": "Results are given in words; binding and its absence hold for the method and conditions named. Binding seen in cells or lysates may run through a third protein. Some results given as binding are weak or reduced against the parent protein; the word gives no strength."}
{"molecule": "CD9 molecule (from UniProt P21926 1-228)", "values": [{"measurement": "binding", "value": "binds"}]}
{"molecule": "B1", "values": [{"measurement": "binding", "value": "binds"}]}
